{
  "sequences": {"note": "Sequences of proteins named here, by UniProt entry; tags and fusion partners are left off. Residues count along the entry.", "UniProt Q99836, residues 148-296": "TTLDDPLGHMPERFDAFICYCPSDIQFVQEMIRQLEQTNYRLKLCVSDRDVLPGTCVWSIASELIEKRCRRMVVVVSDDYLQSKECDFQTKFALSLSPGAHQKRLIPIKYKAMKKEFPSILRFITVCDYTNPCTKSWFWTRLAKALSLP"},
  "source": "paper PMC3369926",
  "biological_target": "GST-MyD88-TIR (wild type, amino acid residues 148-296) (UniProt Q99836)",
  "experiment": "pull-down; GST fusion proteins held on Glutathione Sepharose 4B, three hours at 4°C; four washes with 20 mM potassium phosphate (pH 6.0), 100 mM KCl, 0.1 mM EDTA, 10 mM DTT, 0.5% Triton X100; SDS-PAGE with Coomassie staining; in triplicate; both purified",
  "note": "These are yes or no findings as the source states them, for the method shown.",
  "data": [
    {"binder": "TLR1-TIR (amino acid residues 625-786) (domain or fragment, UniProt Q15399 625-786) NIPLEELQRNLQFHAFISYSGHDSFWVKNELLPNLEKEGMQICLHERNFVPGKSIVENIITCIEKSYKSIFVLSPNFVQSEWCHYELYFAHHNLFHEGSNSLILILLEPIPQYSIPSSYHKLKSLMARRTYLEWPKEKSKRGLFWANLRAAINIKLTEQAKK", "values": [
      {"measurement": "binding", "result": "no binding"}
    ]}
  ]
}
